# Experimental data as given in the supplement of paper PMC11006884.
# Protein sequences, listed by entry. Tags and fused reporters are not part of them. Lines headed by an entry give the natural chain unless they say otherwise; changes in a name come on top.
# UniProt Q15334: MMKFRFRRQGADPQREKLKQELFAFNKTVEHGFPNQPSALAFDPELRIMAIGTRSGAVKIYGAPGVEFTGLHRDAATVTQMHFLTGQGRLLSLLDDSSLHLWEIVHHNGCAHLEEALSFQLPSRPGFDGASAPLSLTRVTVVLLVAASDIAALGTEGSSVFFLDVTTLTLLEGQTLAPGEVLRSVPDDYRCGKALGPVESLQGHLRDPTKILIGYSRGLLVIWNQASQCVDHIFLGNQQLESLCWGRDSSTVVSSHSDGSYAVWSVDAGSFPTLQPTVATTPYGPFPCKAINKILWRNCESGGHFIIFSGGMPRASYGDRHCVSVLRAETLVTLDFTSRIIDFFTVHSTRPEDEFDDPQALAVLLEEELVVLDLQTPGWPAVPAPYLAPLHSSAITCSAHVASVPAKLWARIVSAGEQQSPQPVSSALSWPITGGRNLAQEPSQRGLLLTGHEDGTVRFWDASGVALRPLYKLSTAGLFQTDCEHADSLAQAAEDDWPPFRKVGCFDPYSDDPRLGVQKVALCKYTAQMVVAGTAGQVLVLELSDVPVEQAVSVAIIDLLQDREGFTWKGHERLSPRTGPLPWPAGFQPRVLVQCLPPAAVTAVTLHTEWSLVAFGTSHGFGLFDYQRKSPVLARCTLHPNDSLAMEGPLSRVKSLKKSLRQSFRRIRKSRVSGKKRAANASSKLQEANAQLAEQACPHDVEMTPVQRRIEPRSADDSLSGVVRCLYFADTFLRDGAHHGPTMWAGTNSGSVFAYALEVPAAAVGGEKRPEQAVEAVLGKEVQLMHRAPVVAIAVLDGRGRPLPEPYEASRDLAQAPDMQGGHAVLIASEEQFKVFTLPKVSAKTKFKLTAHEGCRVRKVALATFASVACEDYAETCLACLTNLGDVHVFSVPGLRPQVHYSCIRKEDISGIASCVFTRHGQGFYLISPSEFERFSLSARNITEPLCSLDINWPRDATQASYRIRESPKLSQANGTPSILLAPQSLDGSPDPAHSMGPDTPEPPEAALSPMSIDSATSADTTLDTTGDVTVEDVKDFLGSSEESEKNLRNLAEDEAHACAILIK
# UniProt Q53H80, whole entry: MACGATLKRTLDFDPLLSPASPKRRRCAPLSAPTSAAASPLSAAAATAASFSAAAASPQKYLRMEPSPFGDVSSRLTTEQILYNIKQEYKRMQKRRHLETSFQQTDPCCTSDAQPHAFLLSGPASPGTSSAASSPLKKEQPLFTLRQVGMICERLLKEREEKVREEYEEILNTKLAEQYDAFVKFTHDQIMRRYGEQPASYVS
# UniProt Q15366, whole entry, looked up: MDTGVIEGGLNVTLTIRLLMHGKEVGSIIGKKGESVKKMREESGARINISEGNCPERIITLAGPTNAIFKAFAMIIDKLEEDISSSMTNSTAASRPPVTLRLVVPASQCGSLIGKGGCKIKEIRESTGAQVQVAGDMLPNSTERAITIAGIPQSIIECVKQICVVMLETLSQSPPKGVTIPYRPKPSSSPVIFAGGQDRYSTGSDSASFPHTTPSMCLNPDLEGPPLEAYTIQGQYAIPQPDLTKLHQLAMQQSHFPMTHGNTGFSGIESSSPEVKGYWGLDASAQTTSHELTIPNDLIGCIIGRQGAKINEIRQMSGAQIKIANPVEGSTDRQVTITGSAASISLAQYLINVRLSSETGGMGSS
# UniProt Q53EZ4: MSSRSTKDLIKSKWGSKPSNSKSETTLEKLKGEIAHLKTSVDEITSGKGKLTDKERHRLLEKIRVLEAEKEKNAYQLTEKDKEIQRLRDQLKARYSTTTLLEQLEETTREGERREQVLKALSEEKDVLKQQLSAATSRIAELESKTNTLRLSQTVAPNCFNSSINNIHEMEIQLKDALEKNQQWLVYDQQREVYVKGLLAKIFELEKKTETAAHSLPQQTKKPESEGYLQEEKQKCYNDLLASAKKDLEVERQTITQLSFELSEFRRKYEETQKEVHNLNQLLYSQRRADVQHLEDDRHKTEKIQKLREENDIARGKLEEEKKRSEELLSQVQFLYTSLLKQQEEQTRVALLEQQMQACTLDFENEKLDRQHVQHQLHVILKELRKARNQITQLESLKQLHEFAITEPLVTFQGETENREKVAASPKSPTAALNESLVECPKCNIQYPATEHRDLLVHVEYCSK
# UniProt Q15181: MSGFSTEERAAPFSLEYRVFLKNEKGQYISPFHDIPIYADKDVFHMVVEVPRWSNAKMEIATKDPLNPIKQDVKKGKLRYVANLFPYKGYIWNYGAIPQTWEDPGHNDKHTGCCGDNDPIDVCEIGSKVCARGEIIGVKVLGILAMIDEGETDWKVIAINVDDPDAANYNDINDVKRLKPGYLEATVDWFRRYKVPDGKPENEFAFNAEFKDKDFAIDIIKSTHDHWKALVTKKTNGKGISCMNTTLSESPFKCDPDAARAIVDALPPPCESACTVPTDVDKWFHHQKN
# UniProt Q16576, whole entry, looked up: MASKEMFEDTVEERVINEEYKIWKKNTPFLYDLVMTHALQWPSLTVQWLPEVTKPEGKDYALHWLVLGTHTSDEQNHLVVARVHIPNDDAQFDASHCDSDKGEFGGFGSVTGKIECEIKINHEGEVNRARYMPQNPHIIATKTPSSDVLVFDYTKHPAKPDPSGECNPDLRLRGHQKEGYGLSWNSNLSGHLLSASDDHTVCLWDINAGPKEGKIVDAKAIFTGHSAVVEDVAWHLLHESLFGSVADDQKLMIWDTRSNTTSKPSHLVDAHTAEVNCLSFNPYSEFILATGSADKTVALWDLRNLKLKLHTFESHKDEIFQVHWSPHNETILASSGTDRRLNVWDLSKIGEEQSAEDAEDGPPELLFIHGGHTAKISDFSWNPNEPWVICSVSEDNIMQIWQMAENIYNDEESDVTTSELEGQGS
# UniProt Q15365, whole entry, looked up: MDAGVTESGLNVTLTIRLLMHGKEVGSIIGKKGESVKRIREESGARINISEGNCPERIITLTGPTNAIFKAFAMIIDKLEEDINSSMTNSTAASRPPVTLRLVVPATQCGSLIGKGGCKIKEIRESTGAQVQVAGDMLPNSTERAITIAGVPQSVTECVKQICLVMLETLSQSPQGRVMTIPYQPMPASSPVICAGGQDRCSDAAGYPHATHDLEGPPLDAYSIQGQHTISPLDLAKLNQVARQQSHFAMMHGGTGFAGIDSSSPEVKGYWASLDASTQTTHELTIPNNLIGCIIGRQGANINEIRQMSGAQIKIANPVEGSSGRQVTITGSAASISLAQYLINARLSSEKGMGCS
# UniProt Q15648, whole entry, looked up: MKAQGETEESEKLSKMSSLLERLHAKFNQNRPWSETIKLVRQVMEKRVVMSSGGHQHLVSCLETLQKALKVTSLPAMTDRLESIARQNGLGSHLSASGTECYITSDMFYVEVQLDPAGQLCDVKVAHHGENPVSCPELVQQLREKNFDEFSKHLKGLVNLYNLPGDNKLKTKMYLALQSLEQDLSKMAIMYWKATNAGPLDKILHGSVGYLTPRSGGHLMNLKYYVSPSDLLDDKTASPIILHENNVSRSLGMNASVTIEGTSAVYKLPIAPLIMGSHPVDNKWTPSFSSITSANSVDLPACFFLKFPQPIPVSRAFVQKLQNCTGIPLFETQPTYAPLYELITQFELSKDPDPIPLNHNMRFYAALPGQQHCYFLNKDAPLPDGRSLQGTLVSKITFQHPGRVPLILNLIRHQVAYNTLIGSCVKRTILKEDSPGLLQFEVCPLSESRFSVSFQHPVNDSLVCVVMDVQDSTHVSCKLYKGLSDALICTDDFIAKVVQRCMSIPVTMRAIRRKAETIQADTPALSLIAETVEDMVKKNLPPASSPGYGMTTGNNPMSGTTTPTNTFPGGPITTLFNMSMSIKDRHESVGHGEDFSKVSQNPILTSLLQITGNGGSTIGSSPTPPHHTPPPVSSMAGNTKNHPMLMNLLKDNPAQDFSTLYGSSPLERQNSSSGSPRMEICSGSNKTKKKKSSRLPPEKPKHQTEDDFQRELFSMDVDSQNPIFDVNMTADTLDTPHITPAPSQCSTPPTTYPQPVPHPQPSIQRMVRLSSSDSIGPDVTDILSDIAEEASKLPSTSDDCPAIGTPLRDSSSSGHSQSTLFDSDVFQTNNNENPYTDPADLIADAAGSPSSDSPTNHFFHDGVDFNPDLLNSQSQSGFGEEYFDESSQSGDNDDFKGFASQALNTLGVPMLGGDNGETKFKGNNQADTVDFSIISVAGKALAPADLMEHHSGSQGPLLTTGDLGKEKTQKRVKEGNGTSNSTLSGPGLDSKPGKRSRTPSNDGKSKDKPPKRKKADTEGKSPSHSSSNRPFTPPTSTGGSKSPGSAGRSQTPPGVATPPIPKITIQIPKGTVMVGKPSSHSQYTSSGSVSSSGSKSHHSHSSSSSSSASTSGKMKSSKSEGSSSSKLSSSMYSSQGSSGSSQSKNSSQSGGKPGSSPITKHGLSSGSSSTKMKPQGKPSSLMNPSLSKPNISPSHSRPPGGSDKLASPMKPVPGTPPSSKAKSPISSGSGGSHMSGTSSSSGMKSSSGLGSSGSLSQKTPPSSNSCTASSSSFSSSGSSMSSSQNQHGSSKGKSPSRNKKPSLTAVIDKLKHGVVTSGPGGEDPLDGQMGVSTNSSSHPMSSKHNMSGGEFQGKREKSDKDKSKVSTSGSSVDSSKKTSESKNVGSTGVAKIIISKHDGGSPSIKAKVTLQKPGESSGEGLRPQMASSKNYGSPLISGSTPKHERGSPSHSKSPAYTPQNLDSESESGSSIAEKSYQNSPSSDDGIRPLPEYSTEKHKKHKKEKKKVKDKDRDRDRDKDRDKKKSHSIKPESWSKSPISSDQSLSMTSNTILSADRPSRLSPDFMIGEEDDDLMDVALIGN
# UniProt Q15029: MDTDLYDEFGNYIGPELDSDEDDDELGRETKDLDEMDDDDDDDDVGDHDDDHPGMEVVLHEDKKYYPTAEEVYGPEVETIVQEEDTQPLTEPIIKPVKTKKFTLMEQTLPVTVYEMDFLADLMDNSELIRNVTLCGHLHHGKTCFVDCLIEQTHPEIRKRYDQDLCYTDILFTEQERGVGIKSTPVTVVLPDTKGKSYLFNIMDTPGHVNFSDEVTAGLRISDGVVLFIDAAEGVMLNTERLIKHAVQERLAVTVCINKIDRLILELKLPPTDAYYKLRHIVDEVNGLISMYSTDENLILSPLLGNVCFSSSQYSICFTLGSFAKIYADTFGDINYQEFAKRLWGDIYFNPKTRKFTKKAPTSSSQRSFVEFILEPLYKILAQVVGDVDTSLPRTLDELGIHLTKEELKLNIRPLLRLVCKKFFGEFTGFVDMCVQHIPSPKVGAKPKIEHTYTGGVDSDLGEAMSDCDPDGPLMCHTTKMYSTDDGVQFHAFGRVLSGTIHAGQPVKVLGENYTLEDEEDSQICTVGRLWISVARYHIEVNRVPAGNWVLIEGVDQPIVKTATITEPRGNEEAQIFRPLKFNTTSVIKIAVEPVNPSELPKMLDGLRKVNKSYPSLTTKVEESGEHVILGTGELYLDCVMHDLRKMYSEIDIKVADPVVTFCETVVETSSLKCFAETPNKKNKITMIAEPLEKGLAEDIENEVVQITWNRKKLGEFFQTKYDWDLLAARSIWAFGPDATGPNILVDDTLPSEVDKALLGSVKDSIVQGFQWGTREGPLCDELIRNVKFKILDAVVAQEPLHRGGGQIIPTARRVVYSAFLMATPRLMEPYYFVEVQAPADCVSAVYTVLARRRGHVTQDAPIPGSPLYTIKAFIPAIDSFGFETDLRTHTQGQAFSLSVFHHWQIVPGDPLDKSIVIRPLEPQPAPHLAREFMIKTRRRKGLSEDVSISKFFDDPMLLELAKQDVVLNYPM
# UniProt Q53H82: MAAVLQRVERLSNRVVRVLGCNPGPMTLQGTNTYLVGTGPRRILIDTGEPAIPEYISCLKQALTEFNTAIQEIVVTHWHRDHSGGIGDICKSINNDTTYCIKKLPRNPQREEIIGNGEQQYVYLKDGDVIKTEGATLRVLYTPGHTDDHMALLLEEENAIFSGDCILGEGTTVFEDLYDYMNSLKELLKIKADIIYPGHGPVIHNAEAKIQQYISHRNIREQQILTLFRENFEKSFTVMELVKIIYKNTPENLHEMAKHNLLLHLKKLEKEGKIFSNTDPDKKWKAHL
# UniProt Q15102: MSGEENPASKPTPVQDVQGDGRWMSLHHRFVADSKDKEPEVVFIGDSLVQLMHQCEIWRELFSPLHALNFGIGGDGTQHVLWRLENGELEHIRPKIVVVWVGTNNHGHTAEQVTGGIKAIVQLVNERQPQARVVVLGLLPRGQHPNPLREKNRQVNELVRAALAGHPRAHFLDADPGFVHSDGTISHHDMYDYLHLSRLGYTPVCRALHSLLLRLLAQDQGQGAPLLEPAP
# The entries are a selection whose mix differs from that of the whole data set.
# Compound: COC(=O)C#Cc1ccccc1 [methyl 3-phenylpropiolate]
# Experiment: log2 ratio of iodoacetamide-alkyne labeling of the cysteine site, DMSO over compound (competition); higher = stronger covalent engagement of the cysteine by the compound, active = 1 or more
# Conditions: 500 µM; treatment time 1 h; system: HEK293T cell lysate
# Summary of the method: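 For each cysteine, the log2 competition ratio is mean control-channel reporter intensity over mean compound-channel reporter intensity. HEK293T lysate (2 mg/mL) was exposed to vehicle or electrophile (500 µM, 1 h, ambient temperature), labelled with iodoacetamide alkyne (1 h), clicked to sCIP-TMT reagents, digested overnight with trypsin at 37 °C, streptavidin-enriched and analysed by Orbitrap Eclipse LC-MS/MS with FAIMS and FragPipe. Cysteines quantified in only one of three replicates, each with duplicate channels, were excluded.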
row,Target,log2 ratio of iodoacetamide-alkyne labeling
1,LLGL1 C725 (UniProt Q15334),inactive: -0.031
2,AKIRIN2 C3 (UniProt Q53H80),active: 1.11
3,PCBP2 C158 (UniProt Q15366),inactive: 0.436
4,UniProt Q15149_C3336,inactive: 0.485
5,CEP55 C159 (UniProt Q53EZ4),inactive: -0.0249
6,PPA1 C254 (UniProt Q15181),inactive: 0.16
7,RBBP7 C97 (UniProt Q16576),inactive: 0.429
8,UniProt Q15365_C201,inactive: 0.616
9,MED1 C800 (UniProt Q15648),inactive: 0.0208
10,PDS5A C242 (UniProt Q29RF7),inactive: 0.194
11,JMJD1C C508 (UniProt Q15652),inactive: 0.554
12,EFTUD2 C144 (UniProt Q15029),inactive: 0.297
13,LACTB2 C100 (UniProt Q53H82),inactive: 0.343
14,SETDB1 C1226 (UniProt Q15047),inactive: 0.0374
15,PCBP2 C301 (UniProt Q15366),inactive: 0.396
16,PAFAH1B3 C55 (UniProt Q15102),inactive: 0.0597
17,FSCN1 C80 (UniProt Q16658),inactive: 0.0991

# For convenience, some entries already given:
row,Target,log2 ratio of iodoacetamide-alkyne labeling
15,PCBP2 C301 (UniProt Q15366),inactive: 0.396
16,PAFAH1B3 C55 (UniProt Q15102),inactive: 0.0597
